Literature values, collected in patent publication US9445980B2, “Methods for stimulating hair growth” (priority 2012, dated 2016).
For at least one compound, name, drawing or mass did not settle the structure.

Details: topical minoxidil, after several months' use

Nc1cc(N2CCCCC2)nc(N)[n+]1[O-] [minoxidil]
patients in whom hair loss is slowed: roughly 9 in 10 patients
patients in whom limited hair growth is induced: approximately 1 in 3 patients
